Measurements: doi:10.1101/2021.10.26.465893
These are yes or no findings as the source states them, for the method shown. Binding seen in cells or lysates may run through a third protein. Some results given as binding are weak or reduced against the parent protein; the word gives no strength. Sequences can lack the tags named with a protein.

T1: Flag-tagged IRF3 (human IRF3) (human) (UniProt Q14653)
T1 sequence: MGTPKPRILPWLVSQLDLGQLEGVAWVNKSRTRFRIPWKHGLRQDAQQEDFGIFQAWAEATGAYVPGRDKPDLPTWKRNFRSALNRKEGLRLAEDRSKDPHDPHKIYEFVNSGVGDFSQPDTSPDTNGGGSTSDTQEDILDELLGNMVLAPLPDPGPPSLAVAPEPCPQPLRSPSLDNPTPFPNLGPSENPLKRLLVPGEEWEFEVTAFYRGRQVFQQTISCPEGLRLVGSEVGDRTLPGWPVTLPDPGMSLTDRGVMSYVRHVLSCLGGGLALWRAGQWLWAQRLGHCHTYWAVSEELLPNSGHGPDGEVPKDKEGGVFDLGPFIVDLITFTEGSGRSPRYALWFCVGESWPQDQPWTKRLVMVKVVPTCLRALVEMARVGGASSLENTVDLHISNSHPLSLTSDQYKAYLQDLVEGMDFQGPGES

T2: Myc-tagged hDDX18 (human) (UniProt Q9NVP1)
T2 sequence: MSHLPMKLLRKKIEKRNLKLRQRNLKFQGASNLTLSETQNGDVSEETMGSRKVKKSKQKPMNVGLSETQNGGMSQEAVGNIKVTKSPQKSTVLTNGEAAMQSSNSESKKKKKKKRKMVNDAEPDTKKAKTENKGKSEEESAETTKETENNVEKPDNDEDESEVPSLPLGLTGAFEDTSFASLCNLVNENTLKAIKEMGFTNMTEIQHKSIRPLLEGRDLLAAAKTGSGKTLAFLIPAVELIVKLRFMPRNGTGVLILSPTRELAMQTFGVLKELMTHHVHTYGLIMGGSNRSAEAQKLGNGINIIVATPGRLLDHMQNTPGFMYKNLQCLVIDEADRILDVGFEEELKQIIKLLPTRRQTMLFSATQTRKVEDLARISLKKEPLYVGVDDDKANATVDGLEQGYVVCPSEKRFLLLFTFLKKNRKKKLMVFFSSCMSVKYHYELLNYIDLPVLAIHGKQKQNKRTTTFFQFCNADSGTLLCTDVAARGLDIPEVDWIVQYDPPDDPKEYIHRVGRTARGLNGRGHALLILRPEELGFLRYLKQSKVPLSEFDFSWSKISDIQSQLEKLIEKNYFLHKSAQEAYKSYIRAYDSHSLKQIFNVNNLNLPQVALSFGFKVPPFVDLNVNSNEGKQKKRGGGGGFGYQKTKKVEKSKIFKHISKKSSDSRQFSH


Experiments:
[1] = biological target: T1, Flag-tagged IRF3 (human IRF3) (human); assay: co-IP
[2] = biological target: T2, Myc-tagged hDDX18 (human); assay: co-IP

binding [1] | binding [2] | Binder
binds |  | Myc-tagged hDDX18 (protein, UniProt Q9NVP1 1-670) MSHLPMKLLRKKIEKRNLKLRQRNLKFQGASNLTLSETQNGDVSEETMGSRKVKKSKQKPMNVGLSETQNGGMSQEAVGNIKVTKSPQKSTVLTNGEAAMQSSNSESKKKKKKKRKMVNDAEPDTKKAKTENKGKSEEESAETTKETENNVEKPDNDEDESEVPSLPLGLTGAFEDTSFASLCNLVNENTLKAIKEMGFTNMTEIQHKSIRPLLEGRDLLAAAKTGSGKTLAFLIPAVELIVKLRFMPRNGTGVLILSPTRELAMQTFGVLKELMTHHVHTYGLIMGGSNRSAEAQKLGNGINIIVATPGRLLDHMQNTPGFMYKNLQCLVIDEADRILDVGFEEELKQIIKLLPTRRQTMLFSATQTRKVEDLARISLKKEPLYVGVDDDKANATVDGLEQGYVVCPSEKRFLLLFTFLKKNRKKKLMVFFSSCMSVKYHYELLNYIDLPVLAIHGKQKQNKRTTTFFQFCNADSGTLLCTDVAARGLDIPEVDWIVQYDPPDDPKEYIHRVGRTARGLNGRGHALLILRPEELGFLRYLKQSKVPLSEFDFSWSKISDIQSQLEKLIEKNYFLHKSAQEAYKSYIRAYDSHSLKQIFNVNNLNLPQVALSFGFKVPPFVDLNVNSNEGKQKKRGGGGGFGYQKTKKVEKSKIFKHISKKSSDSRQFSH
 | binds | Flag-tagged IRF3 (human IRF3) (protein, UniProt Q14653 1-427) MGTPKPRILPWLVSQLDLGQLEGVAWVNKSRTRFRIPWKHGLRQDAQQEDFGIFQAWAEATGAYVPGRDKPDLPTWKRNFRSALNRKEGLRLAEDRSKDPHDPHKIYEFVNSGVGDFSQPDTSPDTNGGGSTSDTQEDILDELLGNMVLAPLPDPGPPSLAVAPEPCPQPLRSPSLDNPTPFPNLGPSENPLKRLLVPGEEWEFEVTAFYRGRQVFQQTISCPEGLRLVGSEVGDRTLPGWPVTLPDPGMSLTDRGVMSYVRHVLSCLGGGLALWRAGQWLWAQRLGHCHTYWAVSEELLPNSGHGPDGEVPKDKEGGVFDLGPFIVDLITFTEGSGRSPRYALWFCVGESWPQDQPWTKRLVMVKVVPTCLRALVEMARVGGASSLENTVDLHISNSHPLSLTSDQYKAYLQDLVEGMDFQGPGES
